Values joined by “and” are separate entries in the source; they are usually repeats but may differ in a detail not shown here. Equal entries are not always repeated. At least one read-out could not be matched to a standard name with certainty. At least one compound was matched to its structure with a doubt left.
Test system: phosphoinositide (PIP and PIP2) turnover in Dictyostelium AX2 cells
Assay: Dictyostelium phospholipid labelling (PIP and PIP2 turnover)
Format: cell-based, Dictyostelium discoideum
Settings: for PIP Level (% control): Table 1, 0.5 mM compound, 3 min pre-treatment + 6 min labelling, wild type Dictyostelium
Experimental: Phospholipid labelling was quantified using a Typhoon phosphor-imager. Even loading was determined using total lipid stain with copper sulphate.

CCC(C)CC(=O)O (stereo not shown) [3-methylpentanoic acid]
PIP Level (% control): 66 % control and 67 % control

O=c1cc(N2CCOCC2)oc2c(-c3ccccc3)cccc12 [L Y294006, reference compound]
sensitivity of phosphoinositide turnover to PI3K inhibitor (50 μM, 5×PI3K, rPKA and PIPKinA mutant cell lines): still sensitive

CC(C)CCC(=O)O [4-methylpentanoic acid]
PIP Level (% control): 60 % control
PIP Level (% control) (listed as 4-methylpentanioc acid): 102 % control

— patent US11491127B2, “Therapeutic use of compounds” (UCL BUSINESS LTD, priority 2010, dated 2022)
